Experimental data as given in patent publication US7371779B2, “Synergistic compositions of N-acylhomoserine lactones and 4-quinolones” (The Secretary of State for Defense Science and Technology, priority 2001, dated 2008).
Some entries share one result that the patent states for a list of compounds. At least one structure is not confirmed: it was looked up by name or label, or the drawing left a doubt.

Tested on: human PBMC
Assay: ConA mitogen-stimulated proliferation of human PBMC ([3H]-thymidine incorporation)
Assay type: cell-based
Conditions: ConA 1 μg/ml, FIG. 11
Procedure: Blood specimens were obtained with consent from healthy human volunteers. Human peripheral blood mononuclear cells (PBMC) were isolated from heparinised whole blood by buoyant density centrifugation over Histopaque 1077 (Sigma, Poole, UK) at 600 g for 20 minutes. PBMC harvested from the ‘buffy’ layers were washed twice with RPMI 1640 medium and resuspended in CTCM. […] Human PBMC were incubated for 48 h at 37° C. in 5% CO2-air, followed by pulsing with 0.25 μCi [^3H]-thymidine (see above). After a further incubation of 24 h cells were harvested onto fibreglass filters and then counted in the presence of MicroScint-O with the Packard TopCount.
Concanavalin induced cell proliferation of human peripheral blood mononuclear cells (PBMC) was tracked, as described in I above, by a measurement of counts per minute using the scintillation counter. The inhibitory effect of an HSL compound being tested on cell proliferation was indicated by a reduction in counts per minute. […] Columns B, C and D represent different sources of human PBMC samples used.
Plots of counts per minute (cpm) against the concentration of the quorum sensing molecules and the vehicle are shown in FIG. 11.

Row | Compound | concentration at which ConA stimulated hPBMC proliferation is optimally inhibited
1 | CCCCCCCc1[nH]c2ccccc2c(=O)c1O [PQS] | above 10 μM
2 | CCCCCCCCCC(=O)CC(=O)N[C@H]1CCOC1=O [Example 6] | above 10 μM
